Sequences and labels used below:
B1: il2ra_site2_2erj_normal_mot_HHH_b1_05749_af2_000000010_0001_23_39_H_._HHH_b1_03892_af2_0001_0000400015_0000001_1 (protein)
chain: SSSSDERLRQLYELAVELLRLLFEGDEERIEELLREVRELAEELQSDVARELVEEVEKKLSSSSS
B2: il2ra_site1_2b5i_normal_mot_HHH_b2_02740_000000236_0001_1_21_H_._HHH_b1_04624_0001_0000400027_0000001_0_1_af2pred_dldesign_0_af2pred (protein)
chain: SSSSSLRREAVETVEALLKAGKTDEAREVVDELRRLAEERQDPSLLRLVDFLEEAIEIAEESSSS
B3: il2ra_site1_2b5i_sap_9_mot_HHH_b1_06948_af2_000000176_0001_3_20_H_._HHH_b1_01234_0001_0000100007_0000001_0_0001_af2pred_dldesign_0_af2pred (protein)
chain: SSSSSRREILEEVEELYKQAKTDEQQELVEEGYKKILAAIRKGDLEGARKLLEELKEKLESSSSS
B4: il2ra_site2_2erj_sap_25_mot_dcd9809507f71d420582ead1f1e1bbb3_0001_000000226_0001_37_50_H_._HHH_b2_03591_af2_0001_0000300010_0000001_0_0001 (protein)
chain: SSSSDEELRRLYKLLAELLRLRAENDREEFEKIYEEAEELARELNSPVVEKLLEFLEKEINSSSS
B5: il2ra_site1_2b5i_sap_12_mot_HHH_b2_04373_af2_000000166_0001_1_14_H_._HHH_b1_04169_0001_0000700025_0000001_0_0001_af2pred_0001_af2pred (protein)
chain: SSSSSEEVIELLHEANELFKQGNHEEAEKVLREAEELARELNNRSARKLIEAALRIIEEWLSSSS
B6: il2ra_site1_1z92_sap_13_mot_HHH_b2_04969_af2_000000243_0001_39_51_H_._HHH_b2_07732_af2_0001_0000100009_0000001_0_0001_af2pred_0001_af2pred (protein)
chain: SIEEDLELSLRRGIPPEQIVRVAIRTLESDGIPPEEAIELVLEAARKLNDPELEEIAEELLRKLP
B7: il2ra_site1_2b5i_normal_mot_HHH_b2_00231_000000175_0001_20_36_H_._HHH_b2_07547_0001_0000100002_0000001_0_af2pred_0001_af2pred (protein)
chain: SSSSDVWELYLRASRLFLRGNPEEAERLLEEAIELAERLGDPEIAKQLEEMLRHVRRSLSSSSSS
B8: il2ra_site1_2b5i_normal_mot_HHH_b1_01949_af2_000000166_0001_1_19_H_._HHH_b2_06657_af2_0001_0000100008_0000001_0_af2pred_0001_af2pred (protein)
chain: SSSSDEEVHEVTELYREASELFRRGNQEQARKLLEEALELAEKAGDEVAVRDLEHILERLKSSSS
B9: il2ra_site2_2erj_normal_mot_ems_3hC_1315_af2_000000245_0001_45_63_H_._HHH_b1_05944_af2_0001_0000200026_0000001_0 (protein)
chain: SSSSSELEEFIRELVEEFNLSEEAKEALERTAEIAKEQGVDEEYIKLFLRRLAEELEEQASSSSS
B10: il2ra_site2_2erj_normal_mot_HHH_b1_03107_000000098_0001_39_52_H_._HHH_b1_04164_0001_0000100006_0000001_0 (protein)
chain: SSSSDKEIWEEVAELLLELAELFRRGDEERARELLEEAEELAKELNSDALERYIRFVERDLSSSS
B11: il2ra_site1_1z92_normal_mot_108be8bf5286040dcbfed5edda487183_0001_000000086_0001_19_33_H_._26f414d7b340708b6e9383f836a3294b_0001_0001_0000300045_0000001_0_af2pr … (protein)
chain: PKVLEKLFEFARKEGAPPELVARHLLHALKKLGKPPEEVERLVREVLEELLGDPEEAKRVLEEAK
B12: il2ra_site2_2erj_sap_28_mot_HHH_b2_01204_af2_000000056_0001_19_34_H_._HHH_b2_03542_af2_0001_0000200007_0000001_0_0001 (protein)
chain: SSSSDADELAIEAVEALIRLARNGNEEEARELAEEVRKELEELGDPNLARFIELALRDLRSSSSS
B13: il2ra_site2_3nfp_sap_23_mot_HHH_b1_03600_000000077_0001_18_34_H_._HHH_b2_04836_0001_0000300027_0000001_0_0001 (protein)
chain: SSSSDIEEAAHLLRQFAEALKDPELQEEVEELTEEAEKEGDERLLEEAAFRVYRVARKRNSSSSS
B14: il2ra_site2_2erj_sap_12_mot_e3be008b04150b5953e9f850c9479793_0001_000000253_0001_15_29_H_._HHH_b2_03566_0001_0000200003_0000001_1_0001 (protein)
chain: SSSSDEKLRRLYELAVRLTRLVAEGDEEEFEKVLEEAKELAQELDSENAKEILENLEKLLSSSSS
B15: il2ra_site2_3nfp_normal_mot_HHH_b1_01086_000000225_0001_20_36_H_._HHH_b1_06364_af2_0001_0000200004_0000001_0 (protein)
chain: SSSSDEEEIEQLIEEVKELLKRGNPEEAQRVLQEALHLAYELGNFRLFAELADLSVLAYELSSSS
B16: il2ra_site1_1z92_normal_mot_818a9d7520499bc24e5218c3ec3bba43_0001_000000166_0001_34_49_H_._66959ead3e6c57cb3ef8243f3eb758e0_0001_1_af2_0001_0000500046_0000001_0 … (protein)
chain: STAEEDLREAVEKNDEELLREFIELLLKDAGDPKLVELLLRILVRRLGLPPEVLEELRELLEELT
B17: il2ra_site2_2erj_normal_mot_HHH_b1_06554_000000001_0001_44_57_H_._HHH_b1_02402_0001_0000200030_0000001_0_af2pred_0001_1_af2pred_swapped (protein)
chain: SSSSSLERIFELAHEASELLAKGDDEEARRVVEEAEELARESDSKSAERALEFALKSIESLSSSS
B18: il2ra_site1_2b5i_normal_mot_HHH_b2_06557_000000121_0001_42_56_H_._HHH_b2_02809_0001_0000100007_0000001_0 (protein)
chain: SSSSSADEIAEEAHHEASRLWRNGNPEEAEKILEEAAELIRELNDERNLKQLEEYLRFLNSSSSS

Some of the results follow.

The values below come from paper PMC10163288.

In this assay the target is il2ra, P01589. The experiment in a line: yeast display titration.
On to B1, for which the apparent Kd – broadly, a dissociation constant that holds for the conditions of the assay – is “inactive: no binding seen”.

Regarding B2, the “apparent Kd” value is “inactive: no binding seen”. In the case of B3, the “apparent Kd” value is “inactive: no binding seen”.

On to B4, for which the “apparent Kd” value is “inactive: no binding seen”. In the case of B5 it was “inactive: no binding seen”.

Regarding B6, the “apparent Kd” value was “inactive: no binding seen”. For the molecule B7, the “apparent Kd” value is “inactive: no binding seen”. Next, B8: inactive: > 2.63 nM; B9: “inactive: no binding seen”. B10: the “apparent Kd” value is “inactive: no binding seen”.

On to B11, for which the “apparent Kd” value is “inactive: no binding seen”. In the case of B12 it was “inactive: no binding seen”. Regarding B13, the “apparent Kd” value is “inactive: no binding seen”. Next, B14: “inactive: no binding seen”. Turning to B15, the “apparent Kd” value is “inactive: no binding seen”. Next, B16: “inactive: no binding seen”; B17: “inactive: no binding seen”; B18: “inactive: no binding seen”.
